No constants are given. Whether binding was seen depends on the method and setting. In cells and extracts the contact can be indirect. A yes stands for co-enrichment or nearness to the bait. Other partners may have been found. No binding means not detected with the bait.

Protein sequences, listed by entry. Tags and fused reporters are not part of them.
UniProt O54917: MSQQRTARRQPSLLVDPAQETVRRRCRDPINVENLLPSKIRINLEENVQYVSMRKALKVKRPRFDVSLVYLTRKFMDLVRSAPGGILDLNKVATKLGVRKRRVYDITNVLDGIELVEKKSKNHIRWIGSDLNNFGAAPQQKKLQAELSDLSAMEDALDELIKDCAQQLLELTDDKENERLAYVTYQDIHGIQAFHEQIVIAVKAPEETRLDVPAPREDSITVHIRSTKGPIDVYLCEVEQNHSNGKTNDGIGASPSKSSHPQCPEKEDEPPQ
UniProt Q9Z148: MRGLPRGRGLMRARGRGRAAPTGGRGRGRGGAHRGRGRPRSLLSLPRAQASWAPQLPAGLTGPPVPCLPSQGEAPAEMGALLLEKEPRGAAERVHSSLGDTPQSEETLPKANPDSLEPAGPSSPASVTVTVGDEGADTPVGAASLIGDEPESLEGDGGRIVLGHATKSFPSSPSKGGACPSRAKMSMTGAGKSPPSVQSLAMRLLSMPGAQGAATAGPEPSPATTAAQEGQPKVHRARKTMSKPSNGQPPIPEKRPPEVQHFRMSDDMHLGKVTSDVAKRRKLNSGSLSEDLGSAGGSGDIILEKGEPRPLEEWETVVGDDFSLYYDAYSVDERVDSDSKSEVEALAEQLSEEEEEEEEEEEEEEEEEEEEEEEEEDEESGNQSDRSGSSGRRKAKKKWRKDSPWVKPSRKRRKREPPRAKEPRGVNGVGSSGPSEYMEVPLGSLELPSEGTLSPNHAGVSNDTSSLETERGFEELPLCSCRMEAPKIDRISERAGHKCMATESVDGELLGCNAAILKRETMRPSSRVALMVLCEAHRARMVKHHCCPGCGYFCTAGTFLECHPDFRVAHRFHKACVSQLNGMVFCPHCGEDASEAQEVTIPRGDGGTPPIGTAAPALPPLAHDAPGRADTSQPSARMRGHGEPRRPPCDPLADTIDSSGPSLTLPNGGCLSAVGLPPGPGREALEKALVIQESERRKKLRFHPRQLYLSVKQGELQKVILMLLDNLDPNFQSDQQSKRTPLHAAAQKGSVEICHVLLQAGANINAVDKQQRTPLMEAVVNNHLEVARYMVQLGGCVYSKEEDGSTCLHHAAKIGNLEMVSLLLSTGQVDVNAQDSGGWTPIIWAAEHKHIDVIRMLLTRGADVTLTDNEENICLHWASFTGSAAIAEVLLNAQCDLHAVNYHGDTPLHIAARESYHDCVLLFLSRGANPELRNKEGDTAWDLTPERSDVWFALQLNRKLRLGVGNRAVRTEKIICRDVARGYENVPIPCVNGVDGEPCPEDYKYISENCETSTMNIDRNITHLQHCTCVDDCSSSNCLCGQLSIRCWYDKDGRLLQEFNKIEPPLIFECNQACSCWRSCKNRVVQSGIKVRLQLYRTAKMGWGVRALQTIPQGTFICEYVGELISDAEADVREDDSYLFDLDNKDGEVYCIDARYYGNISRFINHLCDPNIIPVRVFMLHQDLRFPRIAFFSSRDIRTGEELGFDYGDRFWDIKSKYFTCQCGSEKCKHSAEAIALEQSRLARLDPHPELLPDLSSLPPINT
UniProt O09106: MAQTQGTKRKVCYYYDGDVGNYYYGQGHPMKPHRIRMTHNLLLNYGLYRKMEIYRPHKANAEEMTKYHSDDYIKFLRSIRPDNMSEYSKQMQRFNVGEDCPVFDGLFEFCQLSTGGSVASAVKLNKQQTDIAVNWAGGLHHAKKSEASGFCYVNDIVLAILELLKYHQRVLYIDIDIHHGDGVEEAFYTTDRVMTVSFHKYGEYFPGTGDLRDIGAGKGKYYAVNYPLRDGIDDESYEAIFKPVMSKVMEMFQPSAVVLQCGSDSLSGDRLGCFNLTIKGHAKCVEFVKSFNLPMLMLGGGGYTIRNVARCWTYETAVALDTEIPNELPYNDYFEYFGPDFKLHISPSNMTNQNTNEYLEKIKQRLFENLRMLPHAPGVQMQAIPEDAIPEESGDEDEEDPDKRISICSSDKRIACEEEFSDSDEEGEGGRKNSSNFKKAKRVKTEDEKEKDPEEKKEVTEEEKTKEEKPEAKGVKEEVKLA
UniProt P70288: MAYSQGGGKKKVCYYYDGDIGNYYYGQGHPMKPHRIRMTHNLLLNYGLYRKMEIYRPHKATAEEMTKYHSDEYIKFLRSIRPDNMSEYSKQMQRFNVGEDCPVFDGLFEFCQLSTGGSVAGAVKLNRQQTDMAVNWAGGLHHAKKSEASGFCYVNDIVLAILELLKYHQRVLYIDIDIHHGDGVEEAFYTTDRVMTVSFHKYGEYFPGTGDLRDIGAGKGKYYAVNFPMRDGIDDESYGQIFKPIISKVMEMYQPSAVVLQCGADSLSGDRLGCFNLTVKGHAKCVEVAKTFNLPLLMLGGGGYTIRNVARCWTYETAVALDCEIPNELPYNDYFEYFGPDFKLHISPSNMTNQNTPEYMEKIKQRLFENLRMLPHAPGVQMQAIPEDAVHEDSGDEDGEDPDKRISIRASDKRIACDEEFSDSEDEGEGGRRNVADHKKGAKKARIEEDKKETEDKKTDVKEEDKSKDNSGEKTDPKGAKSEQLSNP
UniProt E9PVX6: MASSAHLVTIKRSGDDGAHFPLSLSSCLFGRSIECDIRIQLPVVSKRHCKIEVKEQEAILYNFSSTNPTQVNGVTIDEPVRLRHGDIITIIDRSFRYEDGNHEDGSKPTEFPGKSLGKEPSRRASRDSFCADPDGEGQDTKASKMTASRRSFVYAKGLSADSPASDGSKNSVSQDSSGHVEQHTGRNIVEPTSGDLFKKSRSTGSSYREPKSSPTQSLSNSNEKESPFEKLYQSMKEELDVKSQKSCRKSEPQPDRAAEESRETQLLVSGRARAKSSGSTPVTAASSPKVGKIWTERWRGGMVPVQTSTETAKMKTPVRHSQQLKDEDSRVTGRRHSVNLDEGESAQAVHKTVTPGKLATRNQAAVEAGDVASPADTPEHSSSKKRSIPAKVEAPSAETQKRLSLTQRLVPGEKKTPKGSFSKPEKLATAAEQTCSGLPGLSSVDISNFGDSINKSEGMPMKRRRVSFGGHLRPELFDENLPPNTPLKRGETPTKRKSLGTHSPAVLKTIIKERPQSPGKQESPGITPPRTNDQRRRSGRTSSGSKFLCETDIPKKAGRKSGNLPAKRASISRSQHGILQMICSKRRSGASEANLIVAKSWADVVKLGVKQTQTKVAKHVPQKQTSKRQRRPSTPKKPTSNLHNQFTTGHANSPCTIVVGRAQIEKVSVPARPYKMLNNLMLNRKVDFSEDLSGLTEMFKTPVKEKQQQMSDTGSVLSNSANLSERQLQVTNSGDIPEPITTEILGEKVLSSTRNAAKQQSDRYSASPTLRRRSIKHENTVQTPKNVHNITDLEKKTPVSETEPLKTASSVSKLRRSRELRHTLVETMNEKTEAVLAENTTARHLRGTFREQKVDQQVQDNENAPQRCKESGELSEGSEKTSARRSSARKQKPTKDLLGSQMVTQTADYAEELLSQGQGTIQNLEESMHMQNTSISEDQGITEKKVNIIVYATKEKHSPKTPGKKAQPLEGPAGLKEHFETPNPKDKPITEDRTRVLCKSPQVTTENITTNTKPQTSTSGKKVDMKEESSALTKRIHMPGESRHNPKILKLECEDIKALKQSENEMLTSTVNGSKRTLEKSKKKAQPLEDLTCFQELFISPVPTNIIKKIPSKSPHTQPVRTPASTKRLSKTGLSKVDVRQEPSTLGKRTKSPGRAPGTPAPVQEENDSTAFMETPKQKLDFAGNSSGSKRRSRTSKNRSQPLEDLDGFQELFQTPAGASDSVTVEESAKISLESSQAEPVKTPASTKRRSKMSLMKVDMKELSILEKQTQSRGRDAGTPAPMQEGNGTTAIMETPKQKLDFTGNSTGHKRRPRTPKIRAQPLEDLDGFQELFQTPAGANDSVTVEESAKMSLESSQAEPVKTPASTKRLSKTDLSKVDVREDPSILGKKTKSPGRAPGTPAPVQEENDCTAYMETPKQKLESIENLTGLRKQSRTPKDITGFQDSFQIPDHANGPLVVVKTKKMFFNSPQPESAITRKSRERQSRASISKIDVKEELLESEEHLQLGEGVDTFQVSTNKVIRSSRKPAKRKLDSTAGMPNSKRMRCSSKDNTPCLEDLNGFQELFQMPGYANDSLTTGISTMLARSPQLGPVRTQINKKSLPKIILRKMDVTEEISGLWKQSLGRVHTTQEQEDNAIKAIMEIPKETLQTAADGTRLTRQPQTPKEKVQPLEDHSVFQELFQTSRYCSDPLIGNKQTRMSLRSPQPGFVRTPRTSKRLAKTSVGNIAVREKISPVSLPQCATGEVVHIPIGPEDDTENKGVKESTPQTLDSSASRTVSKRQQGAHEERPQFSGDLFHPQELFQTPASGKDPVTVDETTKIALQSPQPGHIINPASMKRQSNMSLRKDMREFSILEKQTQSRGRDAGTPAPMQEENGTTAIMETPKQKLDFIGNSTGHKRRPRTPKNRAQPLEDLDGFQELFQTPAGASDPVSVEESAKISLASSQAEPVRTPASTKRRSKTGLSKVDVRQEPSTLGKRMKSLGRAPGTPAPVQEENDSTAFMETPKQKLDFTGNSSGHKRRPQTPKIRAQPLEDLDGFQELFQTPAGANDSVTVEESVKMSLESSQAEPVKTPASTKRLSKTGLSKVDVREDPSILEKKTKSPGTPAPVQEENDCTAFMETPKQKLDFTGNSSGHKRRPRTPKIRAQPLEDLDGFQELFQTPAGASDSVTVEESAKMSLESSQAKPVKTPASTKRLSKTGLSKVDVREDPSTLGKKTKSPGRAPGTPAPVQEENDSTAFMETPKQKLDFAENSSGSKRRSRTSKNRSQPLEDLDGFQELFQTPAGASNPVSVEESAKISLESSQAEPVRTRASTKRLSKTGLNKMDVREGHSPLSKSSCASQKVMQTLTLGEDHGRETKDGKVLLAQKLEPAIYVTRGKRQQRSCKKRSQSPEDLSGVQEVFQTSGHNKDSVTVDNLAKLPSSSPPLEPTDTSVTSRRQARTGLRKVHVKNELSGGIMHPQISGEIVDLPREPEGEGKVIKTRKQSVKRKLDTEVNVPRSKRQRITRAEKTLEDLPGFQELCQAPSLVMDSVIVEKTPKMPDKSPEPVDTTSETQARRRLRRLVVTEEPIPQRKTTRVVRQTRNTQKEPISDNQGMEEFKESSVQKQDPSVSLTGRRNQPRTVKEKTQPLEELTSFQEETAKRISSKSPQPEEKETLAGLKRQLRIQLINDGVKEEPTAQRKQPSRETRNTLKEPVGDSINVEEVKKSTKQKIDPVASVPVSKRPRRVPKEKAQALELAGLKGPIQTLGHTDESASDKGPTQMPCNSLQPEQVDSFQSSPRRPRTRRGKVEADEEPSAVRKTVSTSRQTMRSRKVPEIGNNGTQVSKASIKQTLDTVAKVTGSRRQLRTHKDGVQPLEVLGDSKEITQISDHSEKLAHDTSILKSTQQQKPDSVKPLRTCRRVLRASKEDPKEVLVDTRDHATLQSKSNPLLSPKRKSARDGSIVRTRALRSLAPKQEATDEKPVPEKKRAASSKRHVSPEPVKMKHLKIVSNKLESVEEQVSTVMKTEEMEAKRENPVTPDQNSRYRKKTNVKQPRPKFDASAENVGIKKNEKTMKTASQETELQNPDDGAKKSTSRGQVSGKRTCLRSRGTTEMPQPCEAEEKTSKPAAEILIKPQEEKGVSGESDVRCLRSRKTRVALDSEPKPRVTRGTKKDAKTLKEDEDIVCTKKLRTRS
UniProt P59178: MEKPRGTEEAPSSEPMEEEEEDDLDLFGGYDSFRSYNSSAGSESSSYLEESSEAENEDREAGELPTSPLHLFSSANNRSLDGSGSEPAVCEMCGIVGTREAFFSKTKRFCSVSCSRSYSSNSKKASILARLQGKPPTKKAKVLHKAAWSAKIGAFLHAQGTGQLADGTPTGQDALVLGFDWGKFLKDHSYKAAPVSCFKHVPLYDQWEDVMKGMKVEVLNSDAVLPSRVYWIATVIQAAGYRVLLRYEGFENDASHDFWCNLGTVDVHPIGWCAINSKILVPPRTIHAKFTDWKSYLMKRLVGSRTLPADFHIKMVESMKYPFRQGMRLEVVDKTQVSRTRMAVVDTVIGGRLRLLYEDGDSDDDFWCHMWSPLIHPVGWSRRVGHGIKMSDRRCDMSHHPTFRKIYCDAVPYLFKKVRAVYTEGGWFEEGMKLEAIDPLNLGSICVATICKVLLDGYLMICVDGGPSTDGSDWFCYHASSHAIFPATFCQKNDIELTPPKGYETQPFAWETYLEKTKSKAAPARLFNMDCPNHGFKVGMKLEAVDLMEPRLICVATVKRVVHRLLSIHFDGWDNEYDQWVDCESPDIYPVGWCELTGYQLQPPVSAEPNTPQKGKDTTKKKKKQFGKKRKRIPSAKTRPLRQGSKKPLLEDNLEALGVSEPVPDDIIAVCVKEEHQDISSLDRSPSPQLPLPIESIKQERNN
UniProt P28574: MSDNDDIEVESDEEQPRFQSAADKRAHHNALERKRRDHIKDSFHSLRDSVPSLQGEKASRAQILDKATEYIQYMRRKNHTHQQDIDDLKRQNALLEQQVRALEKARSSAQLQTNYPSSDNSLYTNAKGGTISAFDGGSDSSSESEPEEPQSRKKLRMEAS

This assay deals with 3×HA-E2F6 (UniProt O54917). Briefly: affinity purification with mass spectrometry; anti-HA microbeads (mMACS, Miltenyi Biotec) on 1 mg nuclear extract of E14TG2a ESCs expressing 3×HA-E2F6 against control E14TG2a cells; nanoLC-MS/MS, spectral counts; enriched: fold change >2 and adjusted p-value < 0.05; n = 5.
Consider DNMT1 (from UniProt P13864 1-1620), for which the binding result is “no binding”.
Under G9a (from UniProt Q9Z148 1-1263) stands “no binding”; under HDAC1 (from UniProt O09106 1-482), “no binding”.
Under HDAC2 (from UniProt P70288 1-488) stands “no binding”; under KI-67 (from UniProt E9PVX6 1-3177), “binds”.
Under L3MBTL2 (from UniProt P59178 1-703) stands “binds”; under MAX (from UniProt P28574 1-160), “binds”.
For the substance MGA (from UniProt A2AWL7 1-3003), the binding result is on record as “binds”.
Under RING1A (from UniProt O35730 1-406) stands “binds”; under SKT (from UniProt A2AQ25 1-1946), “binds”.

The values are drawn from article PMC8195999.
